Chains of the proteins cited; added tags and fusions are not shown. Lines headed by an entry give the natural chain unless they say otherwise; changes in a name come on top.
UniProt Q9NZJ4: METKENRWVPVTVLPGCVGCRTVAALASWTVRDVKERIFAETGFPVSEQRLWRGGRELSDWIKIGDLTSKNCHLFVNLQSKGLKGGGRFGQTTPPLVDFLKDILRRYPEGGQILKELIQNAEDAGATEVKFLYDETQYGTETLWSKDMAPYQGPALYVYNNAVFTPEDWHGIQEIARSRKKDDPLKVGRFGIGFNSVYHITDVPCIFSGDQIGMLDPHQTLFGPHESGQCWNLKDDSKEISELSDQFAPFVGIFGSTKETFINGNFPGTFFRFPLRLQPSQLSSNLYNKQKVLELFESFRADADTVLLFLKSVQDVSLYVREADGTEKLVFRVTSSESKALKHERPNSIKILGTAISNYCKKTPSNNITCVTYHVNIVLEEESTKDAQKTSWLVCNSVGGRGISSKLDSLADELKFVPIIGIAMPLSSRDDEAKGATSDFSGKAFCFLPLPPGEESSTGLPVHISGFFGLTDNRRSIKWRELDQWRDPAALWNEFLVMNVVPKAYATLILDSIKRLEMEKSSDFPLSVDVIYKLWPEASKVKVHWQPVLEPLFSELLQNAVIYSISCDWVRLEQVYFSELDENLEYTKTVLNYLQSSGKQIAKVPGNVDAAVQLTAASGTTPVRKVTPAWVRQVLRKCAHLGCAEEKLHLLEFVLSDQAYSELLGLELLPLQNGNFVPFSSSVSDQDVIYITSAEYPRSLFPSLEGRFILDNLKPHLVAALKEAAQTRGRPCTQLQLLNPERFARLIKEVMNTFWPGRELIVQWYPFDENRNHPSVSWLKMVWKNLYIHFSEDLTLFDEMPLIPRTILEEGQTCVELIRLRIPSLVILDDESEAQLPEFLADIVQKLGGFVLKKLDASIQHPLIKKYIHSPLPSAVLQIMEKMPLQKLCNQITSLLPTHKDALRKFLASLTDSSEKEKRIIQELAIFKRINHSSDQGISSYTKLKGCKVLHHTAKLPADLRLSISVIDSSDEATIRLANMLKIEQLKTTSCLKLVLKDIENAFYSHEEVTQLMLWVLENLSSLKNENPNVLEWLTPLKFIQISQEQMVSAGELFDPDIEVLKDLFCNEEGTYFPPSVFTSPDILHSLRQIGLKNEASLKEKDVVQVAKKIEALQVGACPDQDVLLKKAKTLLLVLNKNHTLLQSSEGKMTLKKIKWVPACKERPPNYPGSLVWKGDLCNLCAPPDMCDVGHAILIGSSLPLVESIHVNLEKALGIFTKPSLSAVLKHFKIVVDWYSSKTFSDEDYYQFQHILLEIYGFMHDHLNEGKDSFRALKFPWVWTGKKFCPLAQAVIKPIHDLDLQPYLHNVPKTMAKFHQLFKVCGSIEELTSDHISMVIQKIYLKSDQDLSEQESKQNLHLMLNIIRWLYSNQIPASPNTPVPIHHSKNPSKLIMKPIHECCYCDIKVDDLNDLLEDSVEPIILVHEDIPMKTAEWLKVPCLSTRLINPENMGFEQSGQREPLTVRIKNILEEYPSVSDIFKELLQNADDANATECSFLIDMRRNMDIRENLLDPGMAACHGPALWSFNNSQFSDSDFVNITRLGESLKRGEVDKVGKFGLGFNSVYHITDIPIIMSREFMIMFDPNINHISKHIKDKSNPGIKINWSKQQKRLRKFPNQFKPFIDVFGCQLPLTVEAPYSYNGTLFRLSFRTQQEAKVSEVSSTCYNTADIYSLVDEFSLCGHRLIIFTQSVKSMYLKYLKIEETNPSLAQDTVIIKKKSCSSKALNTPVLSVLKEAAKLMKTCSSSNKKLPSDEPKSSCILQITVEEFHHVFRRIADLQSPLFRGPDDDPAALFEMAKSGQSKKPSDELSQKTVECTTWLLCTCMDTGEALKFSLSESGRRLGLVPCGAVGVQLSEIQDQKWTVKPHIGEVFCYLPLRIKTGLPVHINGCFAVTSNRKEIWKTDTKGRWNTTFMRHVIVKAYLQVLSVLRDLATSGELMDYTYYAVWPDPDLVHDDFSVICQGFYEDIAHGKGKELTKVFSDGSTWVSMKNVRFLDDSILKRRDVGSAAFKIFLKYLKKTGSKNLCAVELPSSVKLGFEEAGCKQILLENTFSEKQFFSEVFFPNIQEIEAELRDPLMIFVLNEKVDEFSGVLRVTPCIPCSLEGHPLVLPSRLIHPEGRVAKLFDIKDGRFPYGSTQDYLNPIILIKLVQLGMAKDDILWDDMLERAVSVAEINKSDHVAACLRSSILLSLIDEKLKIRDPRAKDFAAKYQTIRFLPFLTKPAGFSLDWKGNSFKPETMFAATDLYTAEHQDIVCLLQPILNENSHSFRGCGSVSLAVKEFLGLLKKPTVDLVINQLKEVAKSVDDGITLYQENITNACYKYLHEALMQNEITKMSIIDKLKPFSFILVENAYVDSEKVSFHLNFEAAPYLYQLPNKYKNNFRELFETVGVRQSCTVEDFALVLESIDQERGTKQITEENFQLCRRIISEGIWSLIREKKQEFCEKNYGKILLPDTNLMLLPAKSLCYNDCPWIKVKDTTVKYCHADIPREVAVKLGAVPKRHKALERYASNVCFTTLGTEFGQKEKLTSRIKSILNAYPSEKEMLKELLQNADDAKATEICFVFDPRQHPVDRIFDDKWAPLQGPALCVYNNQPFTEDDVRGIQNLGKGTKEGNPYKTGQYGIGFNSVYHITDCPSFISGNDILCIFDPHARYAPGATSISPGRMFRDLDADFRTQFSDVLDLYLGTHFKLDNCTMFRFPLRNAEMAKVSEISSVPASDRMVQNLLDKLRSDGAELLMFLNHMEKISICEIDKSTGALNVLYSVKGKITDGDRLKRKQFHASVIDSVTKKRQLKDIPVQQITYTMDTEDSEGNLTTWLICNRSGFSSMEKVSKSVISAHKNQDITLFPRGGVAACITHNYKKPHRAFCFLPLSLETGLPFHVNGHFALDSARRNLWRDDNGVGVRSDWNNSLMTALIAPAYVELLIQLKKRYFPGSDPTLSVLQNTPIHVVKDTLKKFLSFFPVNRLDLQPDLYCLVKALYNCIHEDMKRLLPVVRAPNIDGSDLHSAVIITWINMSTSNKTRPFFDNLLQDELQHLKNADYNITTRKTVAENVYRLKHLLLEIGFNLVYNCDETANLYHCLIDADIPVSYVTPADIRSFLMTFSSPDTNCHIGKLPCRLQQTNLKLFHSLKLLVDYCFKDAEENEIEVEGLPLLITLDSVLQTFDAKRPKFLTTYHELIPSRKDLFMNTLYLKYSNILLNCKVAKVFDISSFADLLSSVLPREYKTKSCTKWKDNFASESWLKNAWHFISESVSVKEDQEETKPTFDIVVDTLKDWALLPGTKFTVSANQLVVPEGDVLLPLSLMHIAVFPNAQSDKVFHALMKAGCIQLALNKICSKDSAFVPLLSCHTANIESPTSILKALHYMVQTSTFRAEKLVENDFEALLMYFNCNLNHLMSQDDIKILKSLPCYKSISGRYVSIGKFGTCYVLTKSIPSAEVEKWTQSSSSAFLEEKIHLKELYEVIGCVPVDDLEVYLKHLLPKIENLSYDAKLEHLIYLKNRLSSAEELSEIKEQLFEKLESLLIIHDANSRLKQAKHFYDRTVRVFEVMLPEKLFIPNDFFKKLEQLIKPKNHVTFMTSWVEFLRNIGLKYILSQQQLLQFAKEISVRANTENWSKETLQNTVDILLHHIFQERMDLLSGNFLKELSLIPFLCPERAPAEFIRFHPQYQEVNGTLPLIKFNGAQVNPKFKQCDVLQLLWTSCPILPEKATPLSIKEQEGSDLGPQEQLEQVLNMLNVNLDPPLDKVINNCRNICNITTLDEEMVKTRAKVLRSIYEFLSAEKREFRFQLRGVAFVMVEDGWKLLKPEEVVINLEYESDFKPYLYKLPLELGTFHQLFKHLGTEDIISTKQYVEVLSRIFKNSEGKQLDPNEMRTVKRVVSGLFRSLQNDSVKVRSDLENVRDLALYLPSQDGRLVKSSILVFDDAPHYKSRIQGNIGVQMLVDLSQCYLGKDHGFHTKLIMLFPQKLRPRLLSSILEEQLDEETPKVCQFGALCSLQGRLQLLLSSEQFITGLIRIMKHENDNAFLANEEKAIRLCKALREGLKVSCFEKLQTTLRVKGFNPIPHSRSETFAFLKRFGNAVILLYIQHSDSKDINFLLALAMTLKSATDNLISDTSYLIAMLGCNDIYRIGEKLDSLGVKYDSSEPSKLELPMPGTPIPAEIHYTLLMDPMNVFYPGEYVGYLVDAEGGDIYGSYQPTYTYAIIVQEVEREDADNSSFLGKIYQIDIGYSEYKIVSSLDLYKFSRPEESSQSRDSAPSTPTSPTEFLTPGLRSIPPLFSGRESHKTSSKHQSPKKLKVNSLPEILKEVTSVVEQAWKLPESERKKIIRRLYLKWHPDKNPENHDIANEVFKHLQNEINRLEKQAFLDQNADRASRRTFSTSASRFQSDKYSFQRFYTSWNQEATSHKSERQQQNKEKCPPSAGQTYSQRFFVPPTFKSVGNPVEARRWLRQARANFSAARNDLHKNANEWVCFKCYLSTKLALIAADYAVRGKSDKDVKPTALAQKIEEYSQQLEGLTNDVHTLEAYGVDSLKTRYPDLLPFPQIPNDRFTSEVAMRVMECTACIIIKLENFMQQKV
UniProt Q9NXR5: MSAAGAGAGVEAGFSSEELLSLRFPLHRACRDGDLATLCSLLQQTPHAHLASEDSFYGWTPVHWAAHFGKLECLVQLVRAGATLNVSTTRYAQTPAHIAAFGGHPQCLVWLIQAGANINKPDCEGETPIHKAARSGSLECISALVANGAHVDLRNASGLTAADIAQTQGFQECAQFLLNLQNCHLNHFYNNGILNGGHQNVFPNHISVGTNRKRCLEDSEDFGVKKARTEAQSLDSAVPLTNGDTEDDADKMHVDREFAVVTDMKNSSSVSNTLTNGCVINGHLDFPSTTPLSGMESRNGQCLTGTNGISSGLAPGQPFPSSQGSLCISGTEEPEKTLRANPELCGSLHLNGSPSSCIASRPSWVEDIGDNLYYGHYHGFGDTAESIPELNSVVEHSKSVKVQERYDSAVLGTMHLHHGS
UniProt Q9NV56, whole entry: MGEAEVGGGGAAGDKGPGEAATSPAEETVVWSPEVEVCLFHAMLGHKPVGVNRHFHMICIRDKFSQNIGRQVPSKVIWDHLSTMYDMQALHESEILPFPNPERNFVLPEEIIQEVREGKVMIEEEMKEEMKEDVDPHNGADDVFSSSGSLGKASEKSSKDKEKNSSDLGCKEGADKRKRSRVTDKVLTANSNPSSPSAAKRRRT
UniProt Q9UBI1, whole entry: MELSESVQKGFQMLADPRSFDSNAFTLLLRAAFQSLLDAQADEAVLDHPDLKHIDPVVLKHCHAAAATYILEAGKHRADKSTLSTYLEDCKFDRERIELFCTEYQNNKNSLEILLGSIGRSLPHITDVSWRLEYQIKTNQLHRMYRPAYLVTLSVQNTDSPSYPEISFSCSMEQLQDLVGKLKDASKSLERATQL
UniProt Q9NUQ3: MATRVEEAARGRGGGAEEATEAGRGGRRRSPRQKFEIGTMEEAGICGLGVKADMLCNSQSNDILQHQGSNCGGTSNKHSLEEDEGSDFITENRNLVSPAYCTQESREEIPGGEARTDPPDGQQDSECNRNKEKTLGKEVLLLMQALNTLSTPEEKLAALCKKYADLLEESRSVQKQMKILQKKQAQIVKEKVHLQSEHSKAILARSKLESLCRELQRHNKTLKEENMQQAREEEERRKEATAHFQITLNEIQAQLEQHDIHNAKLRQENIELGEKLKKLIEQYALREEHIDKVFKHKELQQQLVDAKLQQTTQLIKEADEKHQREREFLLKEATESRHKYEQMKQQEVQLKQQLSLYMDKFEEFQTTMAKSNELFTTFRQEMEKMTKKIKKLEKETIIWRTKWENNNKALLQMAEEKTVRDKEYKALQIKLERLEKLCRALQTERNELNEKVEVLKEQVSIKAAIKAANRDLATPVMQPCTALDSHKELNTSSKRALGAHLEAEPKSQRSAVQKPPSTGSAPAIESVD
UniProt Q9P000, whole entry: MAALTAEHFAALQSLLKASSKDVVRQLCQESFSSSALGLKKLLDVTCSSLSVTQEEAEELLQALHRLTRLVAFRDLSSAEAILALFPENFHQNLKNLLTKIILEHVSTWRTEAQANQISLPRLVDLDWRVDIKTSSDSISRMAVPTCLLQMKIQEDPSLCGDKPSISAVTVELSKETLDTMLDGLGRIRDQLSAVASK
UniProt Q9NUJ1: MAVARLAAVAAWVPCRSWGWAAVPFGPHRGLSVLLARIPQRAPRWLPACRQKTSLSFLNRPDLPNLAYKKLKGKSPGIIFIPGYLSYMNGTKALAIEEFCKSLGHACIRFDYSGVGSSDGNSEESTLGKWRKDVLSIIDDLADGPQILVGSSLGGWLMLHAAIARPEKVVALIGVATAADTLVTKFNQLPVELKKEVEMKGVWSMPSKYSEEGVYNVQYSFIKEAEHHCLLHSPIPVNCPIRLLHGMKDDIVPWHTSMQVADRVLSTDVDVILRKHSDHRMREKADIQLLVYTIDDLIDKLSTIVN
UniProt Q9P1F3: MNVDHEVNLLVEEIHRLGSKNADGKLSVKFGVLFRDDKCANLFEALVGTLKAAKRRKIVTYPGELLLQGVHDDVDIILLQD
UniProt Q9UDW1: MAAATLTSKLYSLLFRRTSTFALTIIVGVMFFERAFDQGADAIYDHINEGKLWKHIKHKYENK

± gives the standard deviation of the averaged measurements. The list shows a part of the results.
What follows are targets tested with Nc1nc2c(ncn2[C@@H]2O[C@H](COP(=O)(O)OP(=O)(O)OP(=O)(O)O)[C@@H](O)[C@H]2O)c(=O)[nH]1 [guanosine triphosphate] (assay: NP40-soluble protein abundance relative to vehicle (solubility fold change) (ratio); higher = more soluble protein in presence of GTP). Details: concentration: 8mM.
In short: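 Jurkat crude lysate prepared with a Dounce homogeniser was treated at eight concentrations spanning 0.1 to 10 mM, 10 min at room temperature then 3 min at 37 °C. Solubilisation with 0.8% NP40 and benzonase and ultracentrifugation preceded TMT labelling of the supernatant for LC-MS/MS. Fold change against the detergent-processed vehicle was determined per replicate from vsn-normalised intensities, across three independent experiments.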
Work on TPX2 (UniProt Q9ULW0) yielded an NP40-soluble protein abundance of 1.45 ± 0.12.
MRPL39 (UniProt Q9NYK5) was tested, and the NP40-soluble protein abundance was 1.26 ± 0.27.
Work on UniProt Q9ULH0 and related entries yielded an NP40-soluble protein abundance of 1.18 ± 0.23.
UniProt Q9NZJ4 and related entries gave an NP40-soluble protein abundance of 0.981 ± 0.069.
In the case of CFDP1 (UniProt Q9UEE9), the NP40-soluble protein abundance is reported as 0.923 ± 0.093.
For CDV3 (UniProt Q9UKY7), the NP40-soluble protein abundance was 1.09 ± 0.083.
With CGGBP1 (UniProt Q9UFW8) the NP40-soluble protein abundance was 1.04 ± 0.11.
PLXNA1 (UniProt Q9UIW2) showed an NP40-soluble protein abundance of 1.03 ± 0.071.
CDC23 (UniProt Q9UJX2) gave an NP40-soluble protein abundance of 1.19 ± 0.21.
Work on FAM118A (UniProt Q9NWS6) yielded an NP40-soluble protein abundance of 0.901 ± 0.064.
In the case of UniProt Q9UBL3 and related entries, the NP40-soluble protein abundance is reported as 1.06 ± 0.042.
UniProt Q9NXR5 and related entries was tested, and the NP40-soluble protein abundance was 0.998 ± 0.16.
Work on UniProt Q9NY12 and related entries yielded an NP40-soluble protein abundance of 1.9 ± 0.27.
Work on UniProt Q9UJX5 and related entries yielded an NP40-soluble protein abundance of 1.2 ± 0.23.
Target FASTKD2 (UniProt Q9NYY8) has an NP40-soluble protein abundance of 0.929 ± 0.022.
In the case of UniProt Q9UH92 and related entries, the NP40-soluble protein abundance is reported as 0.909 ± 0.069.
Target MTPAP (UniProt Q9NVV4) has an NP40-soluble protein abundance of 1.55 ± 0.02.
With UniProt Q9NX55 the NP40-soluble protein abundance was 1.11 ± 0.098.
Target UniProt Q9UIV1 and related entries has an NP40-soluble protein abundance of 1.07 ± 0.17.
With UniProt Q9NV56 the NP40-soluble protein abundance was 1.04 ± 0.11.
With UniProt Q9NUQ9 and related entries the NP40-soluble protein abundance was 0.831 ± 0.1.
Work on UniProt Q9UBI1 and related entries yielded an NP40-soluble protein abundance of 0.974 ± 0.061.
In the case of CPSF2 (UniProt Q9P2I0), the NP40-soluble protein abundance is reported as 1.21 ± 0.14.
UniProt Q9NUQ3 was tested, and the NP40-soluble protein abundance was 0.97 ± 0.084.
Work on CHMP5 (UniProt Q9NZZ3) yielded an NP40-soluble protein abundance of 1.02 ± 0.03.
Work on COMMD9 (UniProt Q9P000) yielded an NP40-soluble protein abundance of 0.927 ± 0.044.
For “UniProt Q9UK53-2|A0A0C4DFW2|Q9UK53 and related entries”, the NP40-soluble protein abundance was 1.11 ± 0.28.
In the case of UniProt Q9NUJ1 and related entries, the NP40-soluble protein abundance is reported as 0.928 ± 0.13.
In the case of UniProt Q9P1F3, the NP40-soluble protein abundance is reported as 0.662 ± 0.18.
For UniProt Q9ULR0 and related entries, the NP40-soluble protein abundance was 1.08 ± 0.17.
AASS (UniProt Q9UDR5) gave an NP40-soluble protein abundance of 0.956 ± 0.062.
With UniProt Q9UDW1 the NP40-soluble protein abundance was 0.735 ± 0.042.
Target UniProt Q9UGU0 and related entries has an NP40-soluble protein abundance of 1.54 ± 0.3.
For UniProt Q9NVX0 and related entries, the NP40-soluble protein abundance was 0.963 ± 0.022.
Work on UniProt Q9ULV4 and related entries yielded an NP40-soluble protein abundance of 1.67 ± 0.33.
With USE1 (UniProt Q9NZ43) the NP40-soluble protein abundance was 1.07 ± 0.082.
Target UniProt Q9P287 and related entries has an NP40-soluble protein abundance of 0.943 ± 0.058.
UniProt Q9UKZ1 gave an NP40-soluble protein abundance of 1.29 ± 0.15.

Same assay, conditions: concentration: 10mM
With TPX2 (UniProt Q9ULW0) the NP40-soluble protein abundance was 1.46 ± 0.13.
In the case of MRPL39 (UniProt Q9NYK5), the NP40-soluble protein abundance is reported as 1.2 ± 0.3.
UniProt Q9ULH0 and related entries gave an NP40-soluble protein abundance of 1.32 ± 0.28.
Target UniProt Q9NZJ4 and related entries has an NP40-soluble protein abundance of 0.957 ± 0.087.
In the case of CFDP1 (UniProt Q9UEE9), the NP40-soluble protein abundance is reported as 0.923 ± 0.12.
CDV3 (UniProt Q9UKY7) was tested, and the NP40-soluble protein abundance was 1.11 ± 0.068.
For CGGBP1 (UniProt Q9UFW8), the NP40-soluble protein abundance was 1.18 ± 0.019.
With PLXNA1 (UniProt Q9UIW2) the NP40-soluble protein abundance was 1.01 ± 0.047.
Target CDC23 (UniProt Q9UJX2) has an NP40-soluble protein abundance of 1.17 ± 0.24.
FAM118A (UniProt Q9NWS6) gave an NP40-soluble protein abundance of 0.875 ± 0.1.
With UniProt Q9UBL3 and related entries the NP40-soluble protein abundance was 1.04 ± 0.021.
Target UniProt Q9NXR5 and related entries has an NP40-soluble protein abundance of 0.988 ± 0.09.
With UniProt Q9NY12 and related entries the NP40-soluble protein abundance was 2.35 ± 0.49.
For UniProt Q9UJX5 and related entries, the NP40-soluble protein abundance was 1.13 ± 0.17.
FASTKD2 (UniProt Q9NYY8) showed an NP40-soluble protein abundance of 0.916 ± 0.065.
UniProt Q9UH92 and related entries was tested, and the NP40-soluble protein abundance was 1.01 ± 0.062.
In the case of MTPAP (UniProt Q9NVV4), the NP40-soluble protein abundance is reported as 1.554 ± 0.012.
For UniProt Q9NX55, the NP40-soluble protein abundance was 1.08 ± 0.017.
UniProt Q9UIV1 and related entries gave an NP40-soluble protein abundance of 1.16 ± 0.19.
UniProt Q9NV56 showed an NP40-soluble protein abundance of 1.13 ± 0.12.
For UniProt Q9NUQ9 and related entries, the NP40-soluble protein abundance was 0.858 ± 0.087.
For UniProt Q9UBI1 and related entries, the NP40-soluble protein abundance was 0.981 ± 0.086.
CPSF2 (UniProt Q9P2I0) showed an NP40-soluble protein abundance of 1.19 ± 0.092.
Work on UniProt Q9NUQ3 yielded an NP40-soluble protein abundance of 0.977 ± 0.064.
CHMP5 (UniProt Q9NZZ3) was tested, and the NP40-soluble protein abundance was 1.06 ± 0.046.
COMMD9 (UniProt Q9P000) gave an NP40-soluble protein abundance of 0.994 ± 0.12.
In the case of “UniProt Q9UK53-2|A0A0C4DFW2|Q9UK53 and related entries”, the NP40-soluble protein abundance is reported as 1.16 ± 0.097.
Work on UniProt Q9NUJ1 and related entries yielded an NP40-soluble protein abundance of 0.883 ± 0.11.
Target UniProt Q9P1F3 has an NP40-soluble protein abundance of 0.745 ± 0.22.
With UniProt Q9ULR0 and related entries the NP40-soluble protein abundance was 1.13 ± 0.2.
Work on AASS (UniProt Q9UDR5) yielded an NP40-soluble protein abundance of 0.89 ± 0.044.
UniProt Q9UDW1 was tested, and the NP40-soluble protein abundance was 0.75174 ± 0.00021.
UniProt Q9UGU0 and related entries gave an NP40-soluble protein abundance of 1.71 ± 0.43.
UniProt Q9NVX0 and related entries gave an NP40-soluble protein abundance of 1.02 ± 0.17.
With UniProt Q9ULV4 and related entries the NP40-soluble protein abundance was 1.74 ± 0.36.
Target USE1 (UniProt Q9NZ43) has an NP40-soluble protein abundance of 1.08 ± 0.069.
For UniProt Q9P287 and related entries, the NP40-soluble protein abundance was 0.946 ± 0.075.
Work on UniProt Q9UKZ1 yielded an NP40-soluble protein abundance of 1.36 ± 0.051.
